According to PMC8982406:
Results are given in words; binding and its absence hold for the method and conditions named. In cells and extracts the contact can be indirect. Some results given as binding are weak or reduced against the parent protein; the word gives no strength.

Target: T1, endogenous RLIM (Ptch1+/- MB tissue) (mouse (endogenous in Ptch1+/- MB tissue)) (UniProt Q9WTV7)
T1 sequence: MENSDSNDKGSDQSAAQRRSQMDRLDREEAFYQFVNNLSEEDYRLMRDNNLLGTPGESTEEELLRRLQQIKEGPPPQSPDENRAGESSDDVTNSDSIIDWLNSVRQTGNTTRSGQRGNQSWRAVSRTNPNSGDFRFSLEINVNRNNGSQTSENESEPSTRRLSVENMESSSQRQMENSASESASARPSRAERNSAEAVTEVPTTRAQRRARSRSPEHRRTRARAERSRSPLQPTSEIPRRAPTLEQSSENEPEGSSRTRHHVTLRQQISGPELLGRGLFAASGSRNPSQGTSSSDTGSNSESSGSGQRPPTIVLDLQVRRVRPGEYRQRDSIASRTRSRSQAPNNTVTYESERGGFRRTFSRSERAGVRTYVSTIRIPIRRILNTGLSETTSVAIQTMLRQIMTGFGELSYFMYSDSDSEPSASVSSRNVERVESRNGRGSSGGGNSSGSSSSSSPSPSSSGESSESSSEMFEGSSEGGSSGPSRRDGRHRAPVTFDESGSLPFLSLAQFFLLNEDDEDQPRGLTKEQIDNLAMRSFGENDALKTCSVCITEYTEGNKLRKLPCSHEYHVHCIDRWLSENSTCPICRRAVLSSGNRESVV
Assay: co-IP; endogenous RLIM immunoprecipitated with an RLIM antibody from Daoy cell or Ptch1+/- MB tissue lysate; 50 mM Tris-HCl pH 7.4, 150 mM NaCl, 5 mM EDTA, 1% Triton X-100; 4°C, 4 h; western blotting

binding: binds
B1: endogenous ZC4H2 (Ptch1+/- MB tissue) (protein, UniProt Q68FG0 1-224)
chain: MADEQEIMCKLESIKEIRNKTLQMEKIKARLKAEFEALESEERHLKEYKQEMDLLLQEKMAHVEELRLIHADINVMENTIKQSENDLNKLLESTRRLHDEYKPLKEHVDALRMTLGLQRLPDLCEEEEKLSLDYFEKQKAEWQTEPQEPPIPESLAAAAAAAQQLQVARKQDTRQTATFRQQPPPMKACLSCHQQIHRNAPICPLCKAKSRSRNPKKPKRKQDE
